# These are yes or no findings as the source states them, for the method shown. Some results given as binding are weak or reduced against the parent protein; the word gives no strength. For some assays here: Tags and fused reporters may be left off the sequences shown.
# T1: CHO/mCD47-GFP (mouse) (UniProt Q61735)
# T1 sequence (receptor, looked up): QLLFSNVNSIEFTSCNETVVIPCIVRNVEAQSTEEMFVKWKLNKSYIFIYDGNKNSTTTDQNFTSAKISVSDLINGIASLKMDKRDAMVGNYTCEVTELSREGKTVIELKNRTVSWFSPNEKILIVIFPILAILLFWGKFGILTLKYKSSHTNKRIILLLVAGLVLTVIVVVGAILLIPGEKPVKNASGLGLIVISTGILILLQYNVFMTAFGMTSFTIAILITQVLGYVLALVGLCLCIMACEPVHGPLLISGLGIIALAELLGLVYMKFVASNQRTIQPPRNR
# B1: mSIRPa (receptor, UniProt P97797 32-373, looked up)
# ligand protein: KELKVTQPEKSVSVAAGDSTVLNCTLTSLLPVGPIRWYRGVGPSRLLIYSFAGEYVPRIRNVSDTTKRNNMDFSIRISNVTPADAGIYYCVKFQKGSSEPDTEIQSGGGTEVYVLAKPSPPEVSGPADRGIPDQKVNFTCKSHGFSPRNITLKWFKDGQELHPLETTVNPSGKNVSYNISSTVRVVLNSMDVNSKVICEVAHITLDRSPLRGIANLSNFIRVSPTVKVTQQSPTSMNQVNLTCRAERFYPEDLQLIWLENGNVSRNDTPKNLTKNTDGTYNYTSLFLVNSSAHREDVVFTCQVKHDQQPAITRNHTVLGFAHSSDQGSMQTFPDNNATHNWN
# Experiments:
# [1] = target: CD47 on monkey RBC (Macaca fascicularis); test: flow cytometry on cynomolgus monkey red blood cells, MFI
# CHO/mCD47-GFP (mouse) = target: T1, CHO/mCD47-GFP (mouse); test: flow cytometry on CHO cells expressing mouse CD47-GFP, binding percentage
binder,measurement,setting,value
B1,binding,[1],binds
same,binding,CHO/mCD47-GFP (mouse),binds
